{"source": "patent US20210309754A1", "about": "(JCR PHARMACEUTICALS, published 2021)", "binders": {"B1": {"name": "anti-hTfR antibody No. 1 (antibody, V domains shown)", "VH": "EVQLQESGGGLVQPGGSLKLSCAASGLTFSNYGMSWIRQTPDKRLELVANINTNGGSTYYPDSVKGRFTISRDNAKNTLYLQMNSLKSEDTAIYYCTNNRYDEDYWGQGTSVTVSS", "VL": "DIVLTQSSKFMSTSVGDRVSITCKASQDVNSAVAWFQQKPGQSPKLLIYWTSTRHTGVPDRFTGSGSGTVYTLTISSVQAEDLALYYCQQHYSTPRTFGGGTKLEIKR"}, "B2": {"name": "anti-hTfR antibody No. 2 (antibody, V domains shown)", "VH": "EVQLQESGAELVRPGVSVKISCKGSGYTFTDYVMHWVRQSHAKSLEWIGVISTYYGHGSYNQRFKGKATMTVDKSSSTAYLELVRLTSEDSAIYYCVRGGYGSSSLAGNFDVWGAGTTVTVSS", "VL": "DIVLTQSPATLSVTPGDSVSLSCRASQSISNNLQWYQQKSHESPRLLIKYASQSISGIPSRFSGSGSGTDFTLSINSVETEDFGMYFCQQSNSWPRTFGAGTKLELKR", "notes": "Mouse monoclonal antibody from a hybridoma, purified on Protein G; also called mouse anti-hTfR antibody No. 2; antibody of Clone 2 line"}, "B3": {"name": "humanized anti-hTfR antibody No. 1 (antibody, human IgG1, kappa, V domains shown)", "VH": "EVQLVESGGGLVQPGGSLRLSCAASGLTFSNYGMSWVRQAPGKGLELVANINTNGGSTYYPDSVKGRFTISRDNAKNSLYLQMNSLRAEDTAVYYCTNNRYDEDYWGQGTLVTVSS", "VL": "DIQVTQSPSFLSASVGDRVTITCKASQDVNSAVAWFQQKPGKAPKLLIYWTSTRHTGVPDRFSGSGSGTVYTLTISSLQPEDFATYYCQQHYSTPRTFGGGTKVEIKR"}}, "key": {"[1]": {"target": "TfR existing on the endothelium of blood vessels in the brain of cynomolgus monkeys (printed as hTfR) (cynomolgus monkey (Macaca fascicularis))", "assay": "immunohistochemical staining of monkey brain after intravenous administration"}, "[2]": {"target": "TfR existing on the endothelium of blood vessels in the brain of cynomolgus monkeys (printed as hTfR) (cynomolgus monkey (Macaca fascicularis))", "assay": "immunohistochemical staining of monkey brain after intravenous administration (Example 8)"}, "[3]": {"target": "recombinant human TfR (r human TfR: Sino Biological Inc.), extracellular region with N-terminal histidine tag (human) (UniProt P02786)", "assay": "BLI, Octet RED96"}, "[4]": {"target": "recombinant monkey TfR (r monkey TfR: Sino Biological Inc.), cynomolgus monkey TfR extracellular region with N-terminal histidine tag (cynomolgus monkey (Macaca fascicularis))", "assay": "BLI, Octet RED96"}}, "note": "These are yes or no findings as the source states them, for the method shown. Some binding calls cover weakened binding; strength is not graded here.", "data": [{"binder": "B1", "values": [{"measurement": "binding", "setting": "[1]", "result": "binds"}, {"measurement": "binding", "setting": "[2]", "result": "binds"}]}, {"binder": "B2", "values": [{"measurement": "binding", "setting": "[1]", "result": "binds"}, {"measurement": "binding", "setting": "[2]", "result": "binds"}]}, {"binder": "B3", "values": [{"measurement": "binding", "setting": "[3]", "result": "binds"}, {"measurement": "binding", "setting": "[4]", "result": "binds"}]}]}
